# The full ranking holds about 1,700 compounds; the median of “T2 sensor activation Q score (MG/GFP ratio z-score vs DMSO controls)” is about 0.3, and the highest 2% start at about 1.9. The list shows a part of the results.
# System: ppGalNAc-T2 sensor
# Experiment: T2 sensor activation Q score (MG/GFP ratio z-score vs DMSO controls) (SD units); higher = more sensor activation (inhibition of ppGalNAc-T2 glycosylation)
# Conditions: HEK293 sensor cells; 10 µM; 6 h
# Description: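 Cells were treated with compound at 10 uM for 6 h, then MG/GFP ratio was read by flow cytometry (10,000 cells per well, duplicate wells). Q = (R - R_neg)/SD_neg relative to DMSO vehicle controls; the signal rises when the glycosyltransferase is inhibited.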
row,Compound,T2 sensor activation Q score
1,CCOC(=O)Cc1cc(=O)c2cc(C)ccc2[nH]1,0.8
2,CCc1noc2cc(-c3ccccc3)n(C)c(=O)c12,0.45
3,COC(=O)C1(F)C(=O)NC(=O)NC1OC (stereo not drawn),-0.05
4,O=C(/C=C/c1ccc(Cl)s1)c1ccc(Cl)s1,1.15
5,Nc1nc(N)c(C=Nc2ccc(Br)cc2)c(Nc2ccc(Br)cc2)n1,0.25
6,CCCNC(=O)c1ccccc1C(=O)NC1(C(=O)NCCC)CCCC1,0
7,Cc1ccc(N=Nc2c(N)nn(-c3ccccc3)c2N)cc1,1.35
8,Cc1cccc(C(O)C(O)c2cccc(C)n2)n1 (stereo not drawn),0.55
9,CC(=NO)C1CC(CC(=O)O)C1(C)C (stereo not drawn),-0.25
10,O=C1C=CC(=O)N1c1ccc(I)cc1Cl,-0.45
11,c1ccc2c(c1)cnc1ccccc12,-1.75
12,CC[C@@]1(O)C(=O)OCc2c1cc1n(c2=O)Cc2cc3c(N)cccc3nc2-1,0.25
13,Nc1nc(N)c(N=Nc2ccc(C(=O)O)cc2)c(N)n1,0.9
14,NC1=NC(c2ccccc2)N=C(Nc2ccccc2)N1 (stereo not drawn),0
15,CCOc1ccc(S(=O)(=O)c2ccc(C)cc2)c2c1no[n+]2[O-],1.3
16,COc1cc([C@@H]2c3cc4c(cc3[C@@H](O[C@@H]3O[C@@H]5CO[C@@H](C)O[C@H]5[C@H](O)[C@H]3O)[C@H]3COC(=O)[C@H]23)OCO4)cc(OC)c1O,0
17,O=C(O)c1ccccc1-c1ccccc1C(=O)Nc1ccc2oc(=O)c3ccccc3c2c1,0.15
18,CN(C)c1nc(N(C)C)nc(N(C)C)n1,-0.6
19,CC1CN(CCN2CC(C)N(C=O)CC2C)C(C)CN1C=O (stereo not drawn),0.15
20,O=c1nc(Nc2cccc(Cl)c2)oc2cc(Cl)oc(=O)c12,0.85
21,COC(=O)C1(C(=O)OC)C2C(=O)C3C(C21)C3(C(=O)OC(C)(C)C)C(=O)OC(C)(C)C (stereo not drawn),-0.5

# In the list so far, 2 contain a carbonyl joined to an NH by a bond outside any ring.
row,Compound,T2 sensor activation Q score
6,CCCNC(=O)c1ccccc1C(=O)NC1(C(=O)NCCC)CCCC1,0
17,O=C(O)c1ccccc1-c1ccccc1C(=O)Nc1ccc2oc(=O)c3ccccc3c2c1,0.15

# Next results.

row,Compound,T2 sensor activation Q score
1,NS(=O)(=O)c1ccc(Nc2ccccc2)c([N+](=O)[O-])c1,1.25
2,CCOC(=O)Cn1nc2oc(=O)c(CCN3CCN(c4ccccc4OC)CC3)c(C)c2c1C,0.55
3,S=c1[nH]c2ccccc2n2cccc12,1.1
4,NNC(=O)CNC(=O)Nc1n[nH]c(=S)s1,0.4
5,Nc1nc(=S)c2[nH]cnc2[nH]1,-1.4
6,Nc1nc(SCc2ccccn2)c2ncn(C3OC(CO)C(O)C3O)c2n1 (stereo not drawn),-0.15
7,NC(=O)C1=C(N)c2ccccc2C1c1ccccc1 (stereo not drawn),1.4
8,CCCCCOc1ccc(N2C(=O)C(C)CNC2=S)cc1 (stereo not drawn),0.7
9,O=C1CSC(=S)N1/N=C/c1c[nH]c2ccc(Br)cc12,1.35
10,C=CCSC(CC)(CC)C(N)=O,1.75
11,CCOC(=O)N1CCc2cc(OC)c(OC)c3c2c1cc1cc(OC)c(OC)cc13,1.15
12,O=C(Nc1ccc(C2=NCCN2)cc1)c1ccc(C(=O)Nc2ccc(C3=NCCN3)cc2)c(Cl)c1,1.25
13,CCCCOC(=O)c1cccnc1,-1.25
14,Cn1cnc([N+](=O)[O-])c1Sc1nnc(-c2cccnc2)n1C,0.45
15,COc1ccccc1N=NNc1ccccc1OC,0.05
16,COc1cc2c(cc1OC)[N+]([O-])=C(c1ccccc1)C2=O,0
17,COC(=O)Cc1[nH]c(Cl)nc1C(N)=O,-0.5
18,CC1=C(C#N)C(C)(C)C(C#N)=C(C)N1,1.35
19,N#Cc1ccc(C(c2ccc(C#N)cc2)n2cncn2)cc1,-1.45
20,NC(=O)c1ccc2c(c1)S(=O)(=O)c1ccccc1C2=O,0.25
21,Cn1ncc2c(=O)[nH]c(N)nc21,1.45

row,Compound,T2 sensor activation Q score
1,COc1c2occc2cc2ccc(=O)oc12,0.2
2,CC(C)=C(c1ccc(Cl)cc1)c1c(N)ncnc1N,-0.4
3,O=C(O)/C=C/C(=O)N1Cc2cc3ccccc3nc2C1,-0.3
4,CCOC(=O)c1cc2c(OC)c(OC)ccc2c2[nH]cc(C#N)c(=O)c12,0.45
5,Cn1c(=O)c2[nH]c(CNc3ccc(C(=O)O)cc3)nc2n(C)c1=O,1.3
6,O=C(O)c1ccc(O)c(O)c1,0.25
7,COc1ccc(C(=O)Oc2ccc[nH]c2=O)cc1,-0.05
8,CCN(CC)CCNC(=O)C(Cl)=C1C(Cl)=C(Cl)C(Cl)=C1Cl,1
9,CCCCCCCCCCCCC(NC(C)=O)(C(=O)OCC)C(=O)OCC,-0.1
10,COc1c(O)ccc2c1CN1CCc3cc4c(cc3C1C2)OCO4 (stereo not drawn),-1.3
11,Nc1ccc(/C=C/c2ccc3ncccc3c2)cc1,0.4
12,CC(=O)C1C=CC(C)(C(=O)O)C2C=C(C)C(=O)C(C)(O)C12 (stereo not drawn),0.2
13,Cc1cnc(SCc2ccc(Cl)cc2Cl)[nH]c1=O,0.7
14,Nc1cc([N+](=O)[O-])ccc1Nc1ccc(O)cc1,0.75
15,COc1ccc2nc3cc(Cl)ccc3c(Nc3cc(C(C)C)c(O)cc3C)c2c1,0.55
16,Cc1[nH]ccc2c1[nH]c1cc(=O)ccc12,-1.9
17,CC1(C)C2CCC(CN=C(N)CSS(=O)(=O)O)C1C2 (stereo not drawn),1.3
18,Cn1c(CO)cnc1-c1ccccc1,1.15
19,O=C(O)c1nc2nc(Cl)c(Cl)nc2[nH]1,-0.7
20,COc1ccc2c3c([nH]c2c1)[C@H]1C[C@H]2[C@H](C[C@@H](O)[C@H](OC)[C@H]2C(=O)O)CN1CC3,-0.05
21,CN(C)c1ccc(C(c2ccc(N(C)C)cc2)c2ccc([N+](=O)[O-])cc2)cc1,0.55
